{"sequences": {"note": "Chains of the proteins cited; added tags and fusions are not shown. Residues count along the entry.", "UniProt Q5S007": "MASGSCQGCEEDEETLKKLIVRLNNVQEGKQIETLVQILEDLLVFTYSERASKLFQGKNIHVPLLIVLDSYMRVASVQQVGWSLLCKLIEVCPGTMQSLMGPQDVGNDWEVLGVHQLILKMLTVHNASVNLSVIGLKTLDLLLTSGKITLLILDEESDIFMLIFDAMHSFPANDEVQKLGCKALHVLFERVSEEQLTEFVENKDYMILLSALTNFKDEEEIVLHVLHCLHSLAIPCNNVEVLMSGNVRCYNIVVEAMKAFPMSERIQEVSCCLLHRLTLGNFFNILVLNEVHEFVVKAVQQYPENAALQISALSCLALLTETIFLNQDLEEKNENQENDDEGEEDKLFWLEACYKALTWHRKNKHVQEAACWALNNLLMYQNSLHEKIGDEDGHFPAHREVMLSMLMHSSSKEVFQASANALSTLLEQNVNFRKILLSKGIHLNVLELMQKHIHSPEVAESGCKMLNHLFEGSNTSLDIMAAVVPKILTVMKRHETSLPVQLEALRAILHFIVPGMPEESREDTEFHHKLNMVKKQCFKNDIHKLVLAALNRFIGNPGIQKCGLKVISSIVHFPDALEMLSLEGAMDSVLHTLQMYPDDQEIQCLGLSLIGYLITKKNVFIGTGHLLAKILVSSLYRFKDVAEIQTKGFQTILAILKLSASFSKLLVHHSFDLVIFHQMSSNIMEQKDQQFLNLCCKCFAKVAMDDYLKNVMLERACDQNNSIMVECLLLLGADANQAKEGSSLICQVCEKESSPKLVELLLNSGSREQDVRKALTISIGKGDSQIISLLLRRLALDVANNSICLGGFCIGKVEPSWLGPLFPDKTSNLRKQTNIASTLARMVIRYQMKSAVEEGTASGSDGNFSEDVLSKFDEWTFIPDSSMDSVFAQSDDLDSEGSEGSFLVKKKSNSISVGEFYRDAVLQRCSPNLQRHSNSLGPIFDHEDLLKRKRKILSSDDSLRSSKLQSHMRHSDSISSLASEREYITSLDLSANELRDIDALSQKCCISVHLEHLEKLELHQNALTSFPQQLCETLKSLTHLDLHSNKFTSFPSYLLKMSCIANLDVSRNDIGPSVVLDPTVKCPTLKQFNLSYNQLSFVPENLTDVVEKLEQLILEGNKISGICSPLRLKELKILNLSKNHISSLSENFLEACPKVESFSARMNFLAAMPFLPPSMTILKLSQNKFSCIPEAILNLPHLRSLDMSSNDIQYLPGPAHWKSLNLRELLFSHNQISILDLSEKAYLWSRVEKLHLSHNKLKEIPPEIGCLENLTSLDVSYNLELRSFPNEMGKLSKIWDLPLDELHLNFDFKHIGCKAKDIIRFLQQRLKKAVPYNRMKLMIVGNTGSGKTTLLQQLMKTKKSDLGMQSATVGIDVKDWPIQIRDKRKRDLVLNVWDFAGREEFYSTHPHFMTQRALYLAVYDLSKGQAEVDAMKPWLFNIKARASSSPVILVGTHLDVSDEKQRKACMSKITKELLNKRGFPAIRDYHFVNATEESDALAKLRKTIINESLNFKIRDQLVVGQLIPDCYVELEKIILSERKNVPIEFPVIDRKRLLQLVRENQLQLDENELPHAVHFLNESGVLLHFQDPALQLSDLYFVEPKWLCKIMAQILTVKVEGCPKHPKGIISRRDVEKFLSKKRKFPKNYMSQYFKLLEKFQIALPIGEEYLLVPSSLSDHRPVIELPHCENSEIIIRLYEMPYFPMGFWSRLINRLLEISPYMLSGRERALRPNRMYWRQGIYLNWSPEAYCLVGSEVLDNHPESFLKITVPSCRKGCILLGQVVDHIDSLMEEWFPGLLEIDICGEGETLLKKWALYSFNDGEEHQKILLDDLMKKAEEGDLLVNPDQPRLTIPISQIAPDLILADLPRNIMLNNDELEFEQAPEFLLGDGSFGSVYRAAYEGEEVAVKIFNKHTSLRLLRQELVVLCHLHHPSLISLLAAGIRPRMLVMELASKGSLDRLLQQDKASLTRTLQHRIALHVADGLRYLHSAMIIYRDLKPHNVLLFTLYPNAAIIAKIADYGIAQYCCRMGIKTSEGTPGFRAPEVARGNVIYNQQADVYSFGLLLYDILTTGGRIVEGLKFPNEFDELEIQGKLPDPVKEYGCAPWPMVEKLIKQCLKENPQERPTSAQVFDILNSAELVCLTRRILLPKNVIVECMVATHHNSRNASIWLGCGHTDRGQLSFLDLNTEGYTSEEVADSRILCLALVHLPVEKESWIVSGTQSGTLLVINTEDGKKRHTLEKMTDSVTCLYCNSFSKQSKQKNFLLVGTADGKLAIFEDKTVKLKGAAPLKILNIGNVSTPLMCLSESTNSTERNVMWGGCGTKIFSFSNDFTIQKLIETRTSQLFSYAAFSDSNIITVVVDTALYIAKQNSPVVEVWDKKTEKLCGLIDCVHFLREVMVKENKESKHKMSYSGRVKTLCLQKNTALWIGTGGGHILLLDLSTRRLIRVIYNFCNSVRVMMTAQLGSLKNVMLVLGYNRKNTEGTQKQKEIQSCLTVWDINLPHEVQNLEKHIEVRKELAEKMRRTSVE", "UniProt Q9BXW4, residues 1-126": "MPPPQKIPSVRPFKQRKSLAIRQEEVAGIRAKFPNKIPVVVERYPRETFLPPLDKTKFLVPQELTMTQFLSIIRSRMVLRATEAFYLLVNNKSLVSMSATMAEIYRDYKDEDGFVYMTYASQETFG"}, "source": "paper doi:10.1101/2023.10.13.562167", "target": "GFP-LRRK2 (leucine-rich repeat kinase 2) (UniProt Q5S007)", "assay": "co-IP", "note": "No constants are given. Whether binding was seen depends on the method and setting. Binding seen in cells or lysates may run through a third protein.", "data": [{"substance": "3×FLAG-LC3A (from UniProt Q9H492 1-121)", "values": [{"measurement": "binding", "result": "no binding"}]}, {"substance": "3×FLAG-LC3C (from UniProt Q9BXW4 1-126)", "values": [{"measurement": "binding", "result": "no binding"}]}]}
